# From patent USRE39849 (CHEMOCENTRYX, dated 2007)
# Protein sequences, listed by entry. Tags and fused reporters are not part of them. Residues count along the entry.
# UniProt P84444, residues 24-133: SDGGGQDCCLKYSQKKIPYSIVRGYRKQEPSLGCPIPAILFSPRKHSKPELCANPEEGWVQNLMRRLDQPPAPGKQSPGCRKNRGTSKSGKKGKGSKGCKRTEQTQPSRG
# These are yes or no findings as the source states them, for the method shown. Some results given as binding are weak or reduced against the parent protein; the word gives no strength. Sequences can lack the tags named with a protein.
# T1: human CCX CKR with N-terminal Flag epitope, stably expressed on HEK293 cells (human) (UniProt Q9NPB9)
# T1 sequence: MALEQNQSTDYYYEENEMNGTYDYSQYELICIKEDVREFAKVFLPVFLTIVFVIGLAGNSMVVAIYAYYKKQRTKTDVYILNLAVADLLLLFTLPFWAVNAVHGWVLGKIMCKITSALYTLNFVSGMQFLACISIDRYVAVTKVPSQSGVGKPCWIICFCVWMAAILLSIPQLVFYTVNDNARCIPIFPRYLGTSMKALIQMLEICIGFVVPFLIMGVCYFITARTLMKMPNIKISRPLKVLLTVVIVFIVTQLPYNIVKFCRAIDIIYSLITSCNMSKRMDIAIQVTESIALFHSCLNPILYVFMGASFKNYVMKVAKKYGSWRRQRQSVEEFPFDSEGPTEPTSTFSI
# T2: human CCX CKR with N-terminal Flag epitope, stably expressed on HEK293 cells (human), Q9NPB9
# T2 chain: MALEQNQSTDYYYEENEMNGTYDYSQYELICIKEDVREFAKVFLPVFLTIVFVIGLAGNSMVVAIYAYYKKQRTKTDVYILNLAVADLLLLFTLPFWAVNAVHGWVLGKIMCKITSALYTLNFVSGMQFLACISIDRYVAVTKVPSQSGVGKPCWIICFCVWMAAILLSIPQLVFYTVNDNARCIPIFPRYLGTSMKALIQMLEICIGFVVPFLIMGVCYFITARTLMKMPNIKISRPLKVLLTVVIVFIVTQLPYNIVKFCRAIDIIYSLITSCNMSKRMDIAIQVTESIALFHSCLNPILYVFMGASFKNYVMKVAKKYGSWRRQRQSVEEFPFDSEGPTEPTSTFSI
# Key:
# [1] = target: T1, human CCX CKR with N-terminal Flag epitope, stably expressed on HEK293 cells (human); experiment: radioligand binding competition on CCX CKR stable transfectants
# [2] = target: T1, human CCX CKR with N-terminal Flag epitope, stably expressed on HEK293 cells (human); experiment: displacement of 125I-ELC (or 125I-TECK) from CCX CKR stable transfectants, cold chemokine at 200 nM
# [3] = target: T2, human CCX CKR with N-terminal Flag …; experiment: radioligand binding competition on CCX CKR stable transfectants; conditions: remark: other sources report otherwise
# [4] = target: T2, human CCX CKR with N-terminal Flag …; experiment: displacement of 125I-ELC (or 125I-TECK) from CCX CKR stable transfectants, cold chemokine at 200 nM; conditions: remark: other sources report otherwise
Molecule,binding [1],binding [2],binding [3],binding [4]
murine SLC (from UniProt P84444 24-133) (ligand),binds,binds,–,–
"BLC (B-lymphocyte chemoattractant), O43927 23-109 (ligand, UniProt O43927 23-109, looked up) VLEVYYTSLRCRCVQESSVFIPRRFIDRIQILPRGNGCPRKEIIVWKKNKSIVCVDPQAEWIQRMMEVLRKRSSSTLPVPVFKRKIP",–,–,binds,binds
vMIPII from the human Kaposi's sarcoma herpesvirus HHV8 (ligand) LGASWHRPDKCCLGYQKRPLPQVLLSSWYPTSQLCSKPGVIFLTKRGRQVCADKSKDWVKKLMQQLPVTAR,binds,binds,–,–
